In PubChem BioAssay AID504467 (National Center for Advancing Translational Sciences (NCATS), 2011):
The campaign covered roughly 330,000 compounds. About 7,700 (2.3%) were called active. Inconclusive results, whose numbers are uncertain, are shown with a selection of clear calls. The call rests on the fitted dose curve; in most records, active means well fitted inhibition curve with a large enough effect; inconclusive means small, poorly fitted or top-dose-only effect, or effect the other way; inactive means flat fitted curve, though single readings scatter. Potencies beside an inconclusive call are fits to weak or partial responses and may not hold up.
On the % scale 0 is the no-effect control and ±100 the full control effect; potency means the concentration at half of the fitted maximal effect.

Assay: qHTS screen for small molecules that inhibit ELG1-dependent DNA repair in human embryonic kidney (HEK293T) cells expressing luciferase-tagged ELG1; further: nearly all actives have a fitted effect of over 55% in size
Conditions: HEK293T ELG1-luciferase reporter, luminescence, 16 h, DNA damage induced by 5-fluorouridine; activity change, negative = inhibition: at 46.1 µM (top of the series)
Summary of the method: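 DMSO vehicle served as the neutral condition. Each well held 2,000 cells given 5-fluorouridine plus compound; after 16 hr at 37 °C/5% CO2, ONE-Glo was added and luciferase measured 30 min later.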
With `Cc1ccc(NC(=O)c2ccc(NC(=O)c3ccccc3)cc2)cc1C` the Potency was inconclusive: 10.3 µM [activator, partial curve]. With `Cn1c(N)c(C(=O)COC(=O)CCCOc2ccc(Cl)cc2Cl)c(=O)n(C)c1=O` the “activity change, negative = inhibition” value was inactive: -0.65%. With `O=C(COc1ccccc1O)Nc1ccccc1Cl` the Potency was inconclusive: 14.1 µM [activator, partial curve, poor fit]. With `Cc1c(NC(=O)c2cc(-c3ccc(Cl)cc3)on2)c(=O)n(-c2ccccc2)n1C` the “activity change, negative = inhibition” value was inactive: -11.5%. For `O=c1cc(Cn2ccnc2)c2cc(O)ccc2o1`, the “activity change, negative = inhibition” value was inactive: -9.96%. With `CC(Sc1nc(NCc2ccccc2)nc(N2CCOCC2)n1)C(=O)Nc1ccccc1` (centres undefined) the Potency was inconclusive: 10.3 µM [inhibitor, partial curve]. For `COc1ccc(-c2c3c(=O)n(C)c(=O)n(C)c3cn2Cc2cccnc2)cc1`, the Potency was inconclusive: 16.4 µM [activator, single point]. In the case of `Cc1nn(-c2ccccn2)c2c1C(c1ccccc1Cl)C1=C(N2)c2ccccc2C1=O` (centres undefined), the Potency is reported as active: 20.6 µM. With `CCOC(=O)CCCCCC(=O)Nc1ccc2c(c1)CC(=O)N([C@@H](C)CO)C[C@H](C)[C@@H](CN(C)Cc1ccccc1)O2` the “activity change, negative = inhibition” value was inactive: 3.52%. In the case of `Cc1ccc(CNC(=O)c2cc(-c3ccccc3C)nn2CC2CC(c3cccnc3)=NO2)cc1` (centres undefined), the Potency is reported as inconclusive: 18.3 µM [inhibitor, partial curve]. With `C/C(=N\NC(=O)CN(c1ccccc1)S(=O)(=O)c1ccccc1[N+](=O)[O-])C(C)(C)C` the “activity change, negative = inhibition” value was inactive: -0.918%. For `O=c1c2c(ncn2C2CCCC2)n(Cc2ccccc2)c(=O)n1CCOc1ccc(Br)cc1`, the Potency was inconclusive: 2.06 µM [inhibitor, partial curve, poor fit]. In the case of `CCOc1ccc(C(C)=O)cc1CSc1nnnn1-c1ccc(O)cc1`, the Potency is reported as inconclusive: 20.6 µM [inhibitor, partial curve]. With `COc1cc(OC)cc(C(=O)c2c(C)c(C#N)c3ccccn23)c1` the “activity change, negative = inhibition” value was inactive: -15.4%. For `CN(Cc1cccs1)C(=O)CSc1nc2ccccc2[nH]1`, the Potency was inconclusive: 29.1 µM [activator, single point]. For `COc1cc(/C=N/NC(=O)c2ccncc2)cc(OC)c1OC`, the Potency was inconclusive: 2.82 µM [inhibitor, full curve, poor fit]. With `C=CCc1cccc(C=Nc2ccc(Br)cc2)c1O` the Potency was inconclusive: 29.1 µM [inhibitor, single point]. For `O=C(Nc1ccc(S(=O)(=O)NCc2ccccc2)cc1)c1ccc(Br)o1`, the Potency was inconclusive: 23.1 µM [inhibitor, single point]. With `COc1ccc(CCC(=O)N2CCN(S(=O)(=O)c3ccc4ccccc4c3)CC2)cc1` the Potency was inconclusive: 2.06 µM [inhibitor, partial curve, poor fit]. In the case of `CCOc1ccc(S(=O)(=O)N2CCOCC2)cc1NC(=O)CN1C(=O)NC(C)(c2ccc(C)cc2)C1=O` (centres undefined), the Potency is reported as inconclusive: 2.06 µM [inhibitor, partial curve, poor fit]. With `COc1ccc(-c2nnc(NC(=O)Cc3ccccc3)s2)c(OC)c1` the “activity change, negative = inhibition” value was inactive: 18.4%. In the case of `CCS(=O)(=O)N1CCN=C1SCc1ccc(F)cc1`, the “activity change, negative = inhibition” value is reported as inactive: 20.4%. In the case of `Cc1noc(C)c1S(=O)(=O)N(CC(=O)NC1CCC(C)CC1)c1ccc(C(C)C)cc1` (centres undefined), the “activity change, negative = inhibition” value is reported as inactive: 12%. For `O=c1[nH]n(-c2cccc3cccnc23)c(=O)c2ccccc12`, the “activity change, negative = inhibition” value was inactive: 0.837%. For `O=C(NCCN1CCN(c2ccccc2)CC1)Nc1cccc(Cl)c1`, the Potency was inconclusive: 20.6 µM [inhibitor, partial curve, poor fit]. In the case of `O=C(Nc1ccn([C@H]2CC[C@@H](CO)O2)c(=O)n1)c1ccccc1`, the Potency is reported as inconclusive: 29.1 µM [activator, single point]. With `Cc1ccc(NC(=O)c2ccccc2Cl)c(Cl)c1` the Potency was inconclusive: 20.6 µM [activator, partial curve]. With `O=C(NN1C(=O)C2CC=C(Cl)CC2C1=O)c1ccncc1` (centres undefined) the “activity change, negative = inhibition” value was inactive: 9.29%. For `Cc1ccc(NC(=O)c2cnc(N3CCN(c4ccccn4)CC3)c3ccccc23)c(Br)c1`, the Potency was inconclusive: 29.1 µM [inhibitor, single point]. For `CCOC(=O)c1cn(CC#N)c2cc(F)c(F)cc2c1=O`, the “activity change, negative = inhibition” value was inactive: 14.6%. With `Cc1onc(-c2ccccc2)c1C(=O)Nc1ccccc1NC(=O)c1c(-c2ccccc2)noc1C` the “activity change, negative = inhibition” value was inactive: -10.5%. With `CCOc1ccc(OCCC(=O)OCC(=O)Nc2ccc3c(c2)OCO3)cc1` the Potency was inconclusive: 20.6 µM [activator, partial curve, poor fit]. For `CCN(CC)Cc1c(O)c(Cl)cc2c(C)cc(=O)oc12`, the “activity change, negative = inhibition” value was inactive: 12.6%. With `COc1ccc(-c2noc(-c3ccccc3C(=O)Nc3cccc(OC)c3)n2)cc1` the Potency was inconclusive: 25.9 µM [inhibitor, single point]. For `CCOC(=O)c1c(C)n(CC(O)CN(CC)CC)c2cc(Br)c(OC)cc12` (centres undefined), the Potency was inconclusive: 20.6 µM [activator, single point]. For `CCCNC(=O)c1sc2c(c1C(=O)Nc1ccccn1)CCCC2`, the Potency was inconclusive: 23.1 µM [inhibitor, single point]. For `CCOC(=O)c1sc2nc(CSc3ccccc3)nc(N3CCCN(C)CC3)c2c1C`, the Potency was inconclusive: 25.9 µM [inhibitor, single point]. With `O=C(Nc1ccccc1F)C1COc2ccccc2O1` (centres undefined) the Potency was inconclusive: 29.1 µM [activator, single point]. In the case of `O=C(CSc1ccc(-c2cccs2)nn1)c1cccs1`, the Potency is reported as inconclusive: 20.6 µM [activator, partial curve]. With `O=C(OCC(=O)N1CCc2ccccc21)c1ccccc1` the Potency was inconclusive: 29.1 µM [activator, single point]. In the case of `O=C(Oc1ccc(OC(=O)N2CCOCC2)cc1)c1ccccc1`, the Potency is reported as inconclusive: 14.6 µM [activator, partial curve, poor fit]. In the case of `CC(=O)Nc1nc(-c2ccccc2)nc(-c2ccccc2OC(C)=O)n1`, the Potency is reported as active: 20.6 µM. With `COc1ccc(-c2onc(C)c2-c2cnn(-c3ccccc3)c2)c(O)c1C` the Potency was inconclusive: 29.1 µM [inhibitor, single point]. For `O=c1[nH]c(/C=C\c2ccc(O)c(O)c2)nc(O)c1[N+](=O)[O-]`, the “activity change, negative = inhibition” value was inactive: -2.16%.
